From patent US20210190799A1, “METHOD FOR DIAGNOSING LIVER DISEASES AND METHOD FOR SCREENING THERAPEUTIC AGENT FOR LIVER DISEASES USING CHANGES IN EXPRESSION OF TM4SF5 PROTEIN” (SEOUL NATIONAL UNIVERSITY R&DB FOUNDATION, priority 2017, published 2021)
No constants are given. Whether binding was seen depends on the method and setting. In cells and extracts the contact can be indirect. Some binding calls cover weakened binding; strength is not graded here. For some of these results: Where a sequence is shown, tags or fusion partners need not be part of it.

Protein sequences, listed by entry. Tags and fused reporters are not part of them. Lines headed by an entry give the natural chain unless they say otherwise; changes in a name come on top.
UniProt P30825: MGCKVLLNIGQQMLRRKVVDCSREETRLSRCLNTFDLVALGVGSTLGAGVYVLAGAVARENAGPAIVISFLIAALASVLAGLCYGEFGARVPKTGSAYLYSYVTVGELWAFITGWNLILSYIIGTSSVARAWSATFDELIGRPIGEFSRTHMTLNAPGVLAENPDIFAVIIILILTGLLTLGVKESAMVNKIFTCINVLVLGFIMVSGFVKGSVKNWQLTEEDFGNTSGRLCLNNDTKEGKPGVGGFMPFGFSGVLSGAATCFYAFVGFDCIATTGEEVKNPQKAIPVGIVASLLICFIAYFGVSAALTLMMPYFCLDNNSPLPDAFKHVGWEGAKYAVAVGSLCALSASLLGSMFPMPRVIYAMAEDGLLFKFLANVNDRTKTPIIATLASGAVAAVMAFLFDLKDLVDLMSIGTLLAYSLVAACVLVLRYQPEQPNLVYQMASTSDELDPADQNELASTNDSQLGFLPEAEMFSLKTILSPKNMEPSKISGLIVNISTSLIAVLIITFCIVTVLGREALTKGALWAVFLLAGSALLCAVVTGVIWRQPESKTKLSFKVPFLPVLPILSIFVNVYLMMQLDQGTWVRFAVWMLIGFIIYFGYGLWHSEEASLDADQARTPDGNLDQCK
UniProt O14894: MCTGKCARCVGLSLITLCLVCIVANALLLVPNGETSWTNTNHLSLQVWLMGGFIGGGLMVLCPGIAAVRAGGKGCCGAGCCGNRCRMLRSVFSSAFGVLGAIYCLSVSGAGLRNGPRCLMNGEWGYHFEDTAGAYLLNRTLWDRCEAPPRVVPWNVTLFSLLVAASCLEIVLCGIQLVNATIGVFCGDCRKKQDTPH

Tests used:
[1] = target: SLC7A1 (solute carrier family 7 member 1) protein labeled with HA tag (UniProt P30825); test: co-precipitation, Western blot (FIG. 14B)
[2] = target: T1, SLC38A9 protein labeled with HA tag (UniProt Q8NBW4); test: co-precipitation, Western blot (FIG. 14C)
T1 sequence (looked up): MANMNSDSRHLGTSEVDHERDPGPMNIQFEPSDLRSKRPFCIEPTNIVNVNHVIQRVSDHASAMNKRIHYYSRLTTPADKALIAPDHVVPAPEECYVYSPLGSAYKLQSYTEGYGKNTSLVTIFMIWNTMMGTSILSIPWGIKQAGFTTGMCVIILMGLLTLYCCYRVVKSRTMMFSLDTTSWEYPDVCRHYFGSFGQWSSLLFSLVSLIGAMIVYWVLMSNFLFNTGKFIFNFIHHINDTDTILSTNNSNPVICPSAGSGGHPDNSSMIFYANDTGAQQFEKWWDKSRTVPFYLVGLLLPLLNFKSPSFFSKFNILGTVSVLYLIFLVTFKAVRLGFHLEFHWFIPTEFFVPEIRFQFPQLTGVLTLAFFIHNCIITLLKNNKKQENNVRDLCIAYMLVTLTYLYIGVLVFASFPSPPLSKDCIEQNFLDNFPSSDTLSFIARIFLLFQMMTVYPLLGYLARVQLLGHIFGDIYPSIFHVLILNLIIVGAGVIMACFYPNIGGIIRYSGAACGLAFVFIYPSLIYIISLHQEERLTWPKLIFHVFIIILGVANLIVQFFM

[3] = target: T1, SLC38A9 protein labeled with HA tag; test: streptavidin-bead pull-down from HEK293T lysate, Western blot with anti-HA
[4] = target: SLC7A1 (solute carrier family 7 member 1) protein labeled with HA tag (UniProt P30825); test: as above

- binding [1]: binds
- binding [2]: binds
- binding [3]: binds
- binding [4]: binds
Substance: TM4SF5 (transmembrane 4 L6 family member 5) protein (from UniProt O14894 1-197)
